# Data from US5414144A, “Propylene glycol cyclohexyl ether derivatives, method of producing same and uses thereof” (Asahi Kasei Kogyo Kabushiki Kaisha, priority 1993, dated 1995).
# Experiment: Detergency: rosin dissolution rate
# Conditions: 7 minutes, shaking
row,SMILES,Detergency: Rosin dissolution rate [%]
1,"C=C(C)C1CC=C(C)CC1 (stereo not drawn) [Comparative Example 6, Limonene]",≥ 30
2,"CCOCCOCCOCC [Comparative Example 8, Diethylene glycol diethyl ether]",≥ 30
3,"COCC(C)OC1CCCCC1 (stereo not drawn) [Example 1, propylene glycol methyl cyclohexyl ether]",≥ 30
4,"CCCCCCOCCOCCO [Comparative Example 2, Diethylene glycol mono-n-hexyl ether]",< 15
5,"CCCCOCCOCCO [Comparative Example 7, Diethylene glycol monobutyl ether]",≥ 30
6,"CCOCC(C)OC1CCCCC1 (stereo not drawn) [Example 2, propylene glycol ethyl cyclohexyl ether]",≥ 30
